{"sequences": {"note": "Sequences of proteins named here, by UniProt entry; tags and fusion partners are left off.", "UniProt Q14209": "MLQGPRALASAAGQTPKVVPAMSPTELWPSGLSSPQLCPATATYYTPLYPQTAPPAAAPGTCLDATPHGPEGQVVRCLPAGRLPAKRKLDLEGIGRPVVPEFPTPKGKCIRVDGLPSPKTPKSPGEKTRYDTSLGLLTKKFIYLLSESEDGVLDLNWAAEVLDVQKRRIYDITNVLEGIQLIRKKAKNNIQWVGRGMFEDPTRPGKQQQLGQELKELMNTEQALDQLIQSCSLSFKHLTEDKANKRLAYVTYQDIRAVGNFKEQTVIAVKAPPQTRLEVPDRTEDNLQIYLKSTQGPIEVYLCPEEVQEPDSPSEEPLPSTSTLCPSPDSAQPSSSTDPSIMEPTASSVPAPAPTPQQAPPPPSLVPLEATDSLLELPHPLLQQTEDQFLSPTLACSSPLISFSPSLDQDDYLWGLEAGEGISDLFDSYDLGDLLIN", "UniProt P10244": "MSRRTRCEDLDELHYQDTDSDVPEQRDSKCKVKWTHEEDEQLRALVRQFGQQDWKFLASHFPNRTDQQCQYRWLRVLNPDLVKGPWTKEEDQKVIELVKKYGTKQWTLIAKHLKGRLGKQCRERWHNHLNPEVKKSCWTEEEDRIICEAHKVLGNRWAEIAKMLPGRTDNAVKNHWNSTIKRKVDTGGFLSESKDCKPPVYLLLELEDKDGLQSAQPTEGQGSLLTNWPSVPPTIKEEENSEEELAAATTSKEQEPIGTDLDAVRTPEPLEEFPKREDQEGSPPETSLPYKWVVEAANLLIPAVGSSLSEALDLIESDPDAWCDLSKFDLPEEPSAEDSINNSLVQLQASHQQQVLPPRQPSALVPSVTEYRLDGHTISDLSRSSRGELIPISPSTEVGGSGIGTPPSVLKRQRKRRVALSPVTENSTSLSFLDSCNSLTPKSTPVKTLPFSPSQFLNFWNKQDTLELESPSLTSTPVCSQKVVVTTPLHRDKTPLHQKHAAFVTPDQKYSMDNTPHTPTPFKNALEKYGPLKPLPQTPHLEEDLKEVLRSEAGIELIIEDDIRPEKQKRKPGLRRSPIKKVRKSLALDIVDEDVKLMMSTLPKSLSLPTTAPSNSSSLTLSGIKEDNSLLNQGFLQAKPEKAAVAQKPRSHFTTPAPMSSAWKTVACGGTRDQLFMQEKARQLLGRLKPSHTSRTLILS"}, "source": "paper PMC9274503", "target": "HA-E2F2 (human) (UniProt Q14209)", "assay": "co-IP; H1299 cells transiently co-transfected with HA-E2F2, Flag-B-Myb and 3×Flag-FOXM1b plasmids for 48 h; whole cell extracts precleared, IP with anti-HA antibody (normal rabbit IgG as control) overnight at 4 °C, Protein A/G magnetic beads, immunoblotting", "note": "Results are given in words; binding and its absence hold for the method and conditions named. Binding seen in cells or lysates may run through a third protein. Some binding calls cover weakened binding; strength is not graded here.", "data": [{"substance": "Flag-B-Myb (from UniProt P10244 1-700)", "values": [{"measurement": "binding", "value": "binds"}]}]}
